Test results published in paper PMC11148086.
Results are given in words; binding and its absence hold for the method and conditions named. In cells and extracts the contact can be indirect. Some binding calls cover weakened binding; strength is not graded here.

The chains behind the UniProt entries cited, without tags or fusion partners.
UniProt P51587: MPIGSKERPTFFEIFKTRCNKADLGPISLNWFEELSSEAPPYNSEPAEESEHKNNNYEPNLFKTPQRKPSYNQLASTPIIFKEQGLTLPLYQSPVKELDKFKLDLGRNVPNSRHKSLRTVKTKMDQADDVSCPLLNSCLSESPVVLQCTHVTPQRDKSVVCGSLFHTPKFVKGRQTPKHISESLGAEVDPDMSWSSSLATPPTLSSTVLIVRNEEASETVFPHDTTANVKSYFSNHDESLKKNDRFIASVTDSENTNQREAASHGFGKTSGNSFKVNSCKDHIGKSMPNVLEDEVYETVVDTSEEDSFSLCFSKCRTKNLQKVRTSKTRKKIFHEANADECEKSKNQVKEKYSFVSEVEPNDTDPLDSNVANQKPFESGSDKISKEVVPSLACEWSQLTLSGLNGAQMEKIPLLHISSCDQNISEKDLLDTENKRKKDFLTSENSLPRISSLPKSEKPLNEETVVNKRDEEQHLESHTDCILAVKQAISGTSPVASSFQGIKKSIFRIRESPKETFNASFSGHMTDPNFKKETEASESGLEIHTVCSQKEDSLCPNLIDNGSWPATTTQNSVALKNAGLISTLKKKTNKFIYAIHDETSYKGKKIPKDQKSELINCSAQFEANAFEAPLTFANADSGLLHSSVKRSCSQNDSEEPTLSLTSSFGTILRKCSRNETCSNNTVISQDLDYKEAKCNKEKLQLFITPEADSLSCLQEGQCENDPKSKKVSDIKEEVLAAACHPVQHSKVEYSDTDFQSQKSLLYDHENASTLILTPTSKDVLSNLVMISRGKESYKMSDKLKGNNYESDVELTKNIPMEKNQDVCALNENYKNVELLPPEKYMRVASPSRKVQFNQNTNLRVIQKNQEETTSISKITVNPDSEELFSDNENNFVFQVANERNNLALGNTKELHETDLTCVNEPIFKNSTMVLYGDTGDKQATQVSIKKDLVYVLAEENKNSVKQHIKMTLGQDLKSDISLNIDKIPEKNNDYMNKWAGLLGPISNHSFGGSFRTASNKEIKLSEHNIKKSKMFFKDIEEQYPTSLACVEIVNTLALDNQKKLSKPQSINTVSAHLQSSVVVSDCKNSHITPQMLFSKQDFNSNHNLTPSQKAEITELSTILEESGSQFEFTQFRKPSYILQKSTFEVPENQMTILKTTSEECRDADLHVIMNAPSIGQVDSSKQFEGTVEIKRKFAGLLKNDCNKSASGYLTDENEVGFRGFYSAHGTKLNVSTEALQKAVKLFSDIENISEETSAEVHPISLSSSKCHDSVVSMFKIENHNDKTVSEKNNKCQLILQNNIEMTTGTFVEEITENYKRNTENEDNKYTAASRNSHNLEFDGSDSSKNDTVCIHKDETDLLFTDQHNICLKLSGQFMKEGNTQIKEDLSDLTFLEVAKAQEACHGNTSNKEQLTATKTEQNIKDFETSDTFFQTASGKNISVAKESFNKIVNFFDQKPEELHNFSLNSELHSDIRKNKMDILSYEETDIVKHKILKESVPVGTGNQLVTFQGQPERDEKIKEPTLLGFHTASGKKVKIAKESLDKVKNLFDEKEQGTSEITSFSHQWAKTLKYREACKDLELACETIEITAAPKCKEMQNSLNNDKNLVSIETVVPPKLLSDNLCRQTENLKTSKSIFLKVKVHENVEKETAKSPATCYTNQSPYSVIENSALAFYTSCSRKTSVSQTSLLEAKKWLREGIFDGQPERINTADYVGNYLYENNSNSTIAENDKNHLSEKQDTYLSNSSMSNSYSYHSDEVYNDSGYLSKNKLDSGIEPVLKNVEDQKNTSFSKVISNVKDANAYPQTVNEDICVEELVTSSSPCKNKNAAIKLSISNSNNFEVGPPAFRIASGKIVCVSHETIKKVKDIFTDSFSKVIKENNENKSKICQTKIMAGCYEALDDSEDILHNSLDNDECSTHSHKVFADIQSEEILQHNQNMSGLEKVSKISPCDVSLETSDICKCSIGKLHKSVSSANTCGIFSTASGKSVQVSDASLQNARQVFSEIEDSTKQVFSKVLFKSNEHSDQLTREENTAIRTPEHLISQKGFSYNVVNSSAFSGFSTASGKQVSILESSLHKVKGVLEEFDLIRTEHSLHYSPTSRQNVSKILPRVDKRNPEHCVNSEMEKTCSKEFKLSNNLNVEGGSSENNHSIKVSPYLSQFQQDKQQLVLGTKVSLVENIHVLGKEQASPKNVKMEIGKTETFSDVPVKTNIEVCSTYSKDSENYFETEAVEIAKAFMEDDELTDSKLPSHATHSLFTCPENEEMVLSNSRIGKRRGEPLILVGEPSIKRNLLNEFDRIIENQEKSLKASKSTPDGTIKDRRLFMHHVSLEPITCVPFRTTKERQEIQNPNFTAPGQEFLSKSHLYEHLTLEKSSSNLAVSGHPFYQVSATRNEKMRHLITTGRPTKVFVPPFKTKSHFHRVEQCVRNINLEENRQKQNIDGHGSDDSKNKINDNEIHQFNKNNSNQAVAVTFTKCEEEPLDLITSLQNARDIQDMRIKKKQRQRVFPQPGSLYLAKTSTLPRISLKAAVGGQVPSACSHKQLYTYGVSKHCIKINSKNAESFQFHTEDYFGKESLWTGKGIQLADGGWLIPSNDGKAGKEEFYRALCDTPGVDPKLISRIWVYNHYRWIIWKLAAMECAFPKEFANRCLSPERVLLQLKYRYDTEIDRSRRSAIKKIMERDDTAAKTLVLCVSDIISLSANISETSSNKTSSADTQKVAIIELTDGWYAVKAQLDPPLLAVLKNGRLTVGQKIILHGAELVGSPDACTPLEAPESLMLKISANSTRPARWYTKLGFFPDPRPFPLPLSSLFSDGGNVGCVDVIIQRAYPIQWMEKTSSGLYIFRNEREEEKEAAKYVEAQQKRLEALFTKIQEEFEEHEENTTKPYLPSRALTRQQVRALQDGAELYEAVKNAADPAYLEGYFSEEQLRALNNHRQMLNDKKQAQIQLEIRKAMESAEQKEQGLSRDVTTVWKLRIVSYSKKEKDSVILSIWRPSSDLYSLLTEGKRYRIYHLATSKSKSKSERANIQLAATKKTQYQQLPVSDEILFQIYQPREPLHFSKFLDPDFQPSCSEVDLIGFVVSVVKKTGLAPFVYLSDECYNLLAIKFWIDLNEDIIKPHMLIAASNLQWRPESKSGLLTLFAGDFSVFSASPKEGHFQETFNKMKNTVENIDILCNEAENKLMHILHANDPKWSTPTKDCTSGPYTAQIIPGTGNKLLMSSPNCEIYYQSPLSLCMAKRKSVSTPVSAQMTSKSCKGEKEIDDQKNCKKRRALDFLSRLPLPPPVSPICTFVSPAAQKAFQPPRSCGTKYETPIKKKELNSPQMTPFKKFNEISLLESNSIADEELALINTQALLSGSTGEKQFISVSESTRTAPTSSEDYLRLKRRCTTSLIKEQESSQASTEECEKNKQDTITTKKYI

Molecular target: T1, RNase H1 (human (endogenous in FT-194 fallopian tube epithelial cells)) (UniProt O60930)
T1 sequence: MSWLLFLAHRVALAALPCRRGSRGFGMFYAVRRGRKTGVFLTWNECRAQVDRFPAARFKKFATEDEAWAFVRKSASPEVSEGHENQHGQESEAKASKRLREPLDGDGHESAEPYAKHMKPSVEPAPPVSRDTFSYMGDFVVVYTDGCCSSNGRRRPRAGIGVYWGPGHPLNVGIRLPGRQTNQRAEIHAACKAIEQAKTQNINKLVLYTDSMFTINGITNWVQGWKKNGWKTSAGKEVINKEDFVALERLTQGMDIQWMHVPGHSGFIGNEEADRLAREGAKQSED
Experiment: proximity ligation; Duolink PLA on fixed (3.7% formaldehyde), permeabilised FTE cells with antibodies against the two endogenous proteins; foci per nucleus; cells with or without DOX-induced BRCA2 knockdown, 0.2 mM HU 4 h, 100 uM DRB 90 min, CDC7i, PARPi, ATRi; single and no antibody controls

BRCA2 (from UniProt P51587 1-3418)
binding: binds
